Laboratory results taken from the supplement of paper PMC6411743.
± gives the standard deviation of the averaged measurements. Only a part is listed here, and it is no random draw.

What was measured:
Assay in all cases: NP40-soluble protein abundance relative to vehicle (solubility fold change) (ratio); higher = more soluble protein in presence of AMP-PNP
UniProt Q9H0G5 = molecular target: T1, UniProt Q9H0G5
T1 sequence (whole entry): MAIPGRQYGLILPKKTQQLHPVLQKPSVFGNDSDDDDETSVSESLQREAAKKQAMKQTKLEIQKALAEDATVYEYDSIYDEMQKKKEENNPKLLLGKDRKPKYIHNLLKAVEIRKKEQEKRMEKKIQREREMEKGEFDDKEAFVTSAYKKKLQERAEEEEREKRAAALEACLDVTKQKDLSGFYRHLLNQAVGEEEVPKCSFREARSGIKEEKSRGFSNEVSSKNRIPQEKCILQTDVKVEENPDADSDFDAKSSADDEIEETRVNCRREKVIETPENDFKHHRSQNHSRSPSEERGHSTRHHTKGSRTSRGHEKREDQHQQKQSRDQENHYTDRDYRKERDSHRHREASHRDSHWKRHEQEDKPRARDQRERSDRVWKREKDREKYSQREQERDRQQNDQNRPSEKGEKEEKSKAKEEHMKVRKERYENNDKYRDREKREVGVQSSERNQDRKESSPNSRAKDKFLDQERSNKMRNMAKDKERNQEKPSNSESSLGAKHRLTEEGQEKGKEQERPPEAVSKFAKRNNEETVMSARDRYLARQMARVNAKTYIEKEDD
In short: (§1)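 Crude Jurkat lysate, prepared by Dounce homogenisation, was exposed to eight concentrations from 0.1 to 10 mM for 10 min at room temperature and then 3 min at 37 °C. Solubilisation used 0.8% NP40 with benzonase for 60 min at 4 °C, followed by ultracentrifugation and TMT labelling of the supernatant for LC-MS/MS. After vsn normalisation of intensities, each value is the fold change against the detergent-processed vehicle within each replicate, across three independent experiments.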

UniProt Q9H0X4 = molecular target: T2, UniProt Q9H0X4
T2 sequence (whole entry): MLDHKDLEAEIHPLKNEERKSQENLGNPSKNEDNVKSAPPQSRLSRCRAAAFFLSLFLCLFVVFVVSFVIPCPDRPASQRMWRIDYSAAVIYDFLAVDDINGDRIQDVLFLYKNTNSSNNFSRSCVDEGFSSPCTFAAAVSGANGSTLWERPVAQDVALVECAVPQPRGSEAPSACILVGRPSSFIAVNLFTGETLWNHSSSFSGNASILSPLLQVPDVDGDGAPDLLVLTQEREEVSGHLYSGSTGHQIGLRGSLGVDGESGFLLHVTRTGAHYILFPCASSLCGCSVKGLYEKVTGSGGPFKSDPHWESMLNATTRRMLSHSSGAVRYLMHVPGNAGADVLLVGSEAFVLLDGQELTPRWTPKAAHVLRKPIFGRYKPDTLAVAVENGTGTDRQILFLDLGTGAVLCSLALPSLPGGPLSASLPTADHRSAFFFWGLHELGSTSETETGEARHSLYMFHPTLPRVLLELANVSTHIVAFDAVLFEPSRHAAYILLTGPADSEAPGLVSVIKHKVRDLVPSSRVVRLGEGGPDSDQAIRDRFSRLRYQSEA
In short: as §1

[1] = molecular target: T3, UniProt Q9H270 and related entries
T3 sequence (whole entry): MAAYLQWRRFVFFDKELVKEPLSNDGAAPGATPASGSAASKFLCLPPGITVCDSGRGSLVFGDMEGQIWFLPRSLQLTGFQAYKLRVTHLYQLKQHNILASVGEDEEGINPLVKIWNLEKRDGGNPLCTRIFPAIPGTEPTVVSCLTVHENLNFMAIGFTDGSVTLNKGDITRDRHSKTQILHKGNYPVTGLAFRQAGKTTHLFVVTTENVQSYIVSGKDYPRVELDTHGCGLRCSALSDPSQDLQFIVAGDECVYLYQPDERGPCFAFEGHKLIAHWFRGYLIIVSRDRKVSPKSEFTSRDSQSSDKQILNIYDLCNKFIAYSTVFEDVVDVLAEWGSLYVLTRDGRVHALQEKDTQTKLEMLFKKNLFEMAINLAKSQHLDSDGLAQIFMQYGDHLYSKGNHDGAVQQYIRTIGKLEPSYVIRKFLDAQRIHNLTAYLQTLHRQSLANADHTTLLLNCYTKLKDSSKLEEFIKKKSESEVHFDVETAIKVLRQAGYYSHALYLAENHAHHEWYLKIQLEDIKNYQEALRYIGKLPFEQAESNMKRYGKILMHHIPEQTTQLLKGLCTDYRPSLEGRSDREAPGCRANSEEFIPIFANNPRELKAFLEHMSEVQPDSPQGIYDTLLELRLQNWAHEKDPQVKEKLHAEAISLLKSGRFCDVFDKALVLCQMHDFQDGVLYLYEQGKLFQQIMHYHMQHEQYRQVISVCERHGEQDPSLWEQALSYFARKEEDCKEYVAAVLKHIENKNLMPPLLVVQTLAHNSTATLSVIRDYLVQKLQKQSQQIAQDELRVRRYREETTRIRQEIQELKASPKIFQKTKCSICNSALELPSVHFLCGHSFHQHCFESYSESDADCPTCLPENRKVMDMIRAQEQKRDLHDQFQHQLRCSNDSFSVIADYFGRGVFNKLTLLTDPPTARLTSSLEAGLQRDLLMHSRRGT
In short: as §1

[2] = molecular target: T4, UniProt Q9H300 and related entries
T4 sequence (whole entry): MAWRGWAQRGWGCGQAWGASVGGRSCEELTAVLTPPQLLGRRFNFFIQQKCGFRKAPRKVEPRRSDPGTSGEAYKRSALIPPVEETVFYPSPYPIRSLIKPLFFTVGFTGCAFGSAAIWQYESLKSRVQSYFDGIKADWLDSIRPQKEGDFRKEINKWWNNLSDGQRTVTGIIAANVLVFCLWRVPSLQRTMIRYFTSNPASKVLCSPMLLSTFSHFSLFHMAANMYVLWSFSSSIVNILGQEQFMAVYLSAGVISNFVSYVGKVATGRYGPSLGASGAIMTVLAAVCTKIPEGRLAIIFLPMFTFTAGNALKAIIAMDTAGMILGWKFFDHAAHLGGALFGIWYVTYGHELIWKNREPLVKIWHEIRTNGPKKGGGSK
In short: as §1

[3] = molecular target: T5, UniProt Q9H4L7 and related entries
T5 sequence (whole entry): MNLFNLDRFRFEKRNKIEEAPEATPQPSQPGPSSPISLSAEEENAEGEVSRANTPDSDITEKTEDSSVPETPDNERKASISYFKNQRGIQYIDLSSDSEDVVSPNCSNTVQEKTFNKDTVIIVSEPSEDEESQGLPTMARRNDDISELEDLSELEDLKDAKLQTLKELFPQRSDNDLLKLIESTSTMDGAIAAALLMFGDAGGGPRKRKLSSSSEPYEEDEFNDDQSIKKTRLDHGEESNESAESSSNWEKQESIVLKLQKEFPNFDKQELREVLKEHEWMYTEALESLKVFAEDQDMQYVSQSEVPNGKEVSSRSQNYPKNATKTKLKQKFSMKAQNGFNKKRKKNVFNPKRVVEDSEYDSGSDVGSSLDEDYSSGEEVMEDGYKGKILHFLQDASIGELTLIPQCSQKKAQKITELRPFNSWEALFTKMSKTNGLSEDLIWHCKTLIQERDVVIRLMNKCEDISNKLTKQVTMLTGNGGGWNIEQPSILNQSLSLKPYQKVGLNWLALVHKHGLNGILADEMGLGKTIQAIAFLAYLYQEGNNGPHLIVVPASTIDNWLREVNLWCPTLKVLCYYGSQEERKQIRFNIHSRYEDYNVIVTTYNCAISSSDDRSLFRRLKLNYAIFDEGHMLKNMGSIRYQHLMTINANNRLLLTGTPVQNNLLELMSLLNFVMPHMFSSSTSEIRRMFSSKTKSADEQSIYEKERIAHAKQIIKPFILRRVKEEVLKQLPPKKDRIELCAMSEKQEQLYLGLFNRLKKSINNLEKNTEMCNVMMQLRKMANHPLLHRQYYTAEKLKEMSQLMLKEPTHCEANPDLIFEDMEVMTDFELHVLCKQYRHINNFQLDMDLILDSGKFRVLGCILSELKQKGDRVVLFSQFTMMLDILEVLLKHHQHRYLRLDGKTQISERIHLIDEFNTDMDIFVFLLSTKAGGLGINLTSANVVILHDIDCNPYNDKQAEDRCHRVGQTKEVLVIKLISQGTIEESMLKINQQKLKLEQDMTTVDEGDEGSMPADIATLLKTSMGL
In short: as §1

`Nc1ncnc2c1ncn2[C@@H]1O[C@H](COP(=O)(O)OP(=O)(O)NP(=O)(O)O)[C@@H](O)[C@H]1O` [adenylyl imidodiphosphate] gave an NP40-soluble protein abundance (UniProt Q9H0G5; concentration: 1mM) of 1.04 ± 0.016, an NP40-soluble protein abundance (UniProt Q9H0G5; concentration: 2mM) of 1.1 ± 0.033 and an NP40-soluble protein abundance (UniProt Q9H0G5; concentration: 4mM) of 1.06 ± 0.051. The NP40-soluble protein abundance (UniProt Q9H0G5; concentration: 6mM) was 1.02 ± 0.046, the NP40-soluble protein abundance (UniProt Q9H0G5; concentration: 8mM) was 1.03 ± 0.012 and the NP40-soluble protein abundance (UniProt Q9H0G5; concentration: 10mM) was 1.09 ± 0.038. It also gave an NP40-soluble protein abundance (UniProt Q9H0X4; concentration: 1mM) of 0.955 ± 0.05, an NP40-soluble protein abundance (UniProt Q9H0X4; concentration: 2mM) of 0.997 ± 0.049 and an NP40-soluble protein abundance (UniProt Q9H0X4; concentration: 4mM) of 0.97 ± 0.03. It also gave an NP40-soluble protein abundance (UniProt Q9H0X4; concentration: 6mM) of 0.994 ± 0.051, an NP40-soluble protein abundance (UniProt Q9H0X4; concentration: 8mM) of 0.965 ± 0.043 and an NP40-soluble protein abundance (UniProt Q9H0X4; concentration: 10mM) of 0.958 ± 0.043. For the same compound, the NP40-soluble protein abundance ([1]; concentration: 1mM) was 1.003 ± 0.0068, the NP40-soluble protein abundance ([1]; concentration: 2mM) was 0.93 ± 0.087 and the NP40-soluble protein abundance ([1]; concentration: 4mM) was 0.995 ± 0.016. It also gave an NP40-soluble protein abundance ([1]; concentration: 6mM) of 0.9627 ± 0.0063, an NP40-soluble protein abundance ([1]; concentration: 8mM) of 0.9847 ± 0.0026 and an NP40-soluble protein abundance ([1]; concentration: 10mM) of 0.953 ± 0.046. The NP40-soluble protein abundance ([2]; concentration: 1mM) was 1.07 ± 0.05, the NP40-soluble protein abundance ([2]; concentration: 2mM) was 1.12 ± 0.075 and the NP40-soluble protein abundance ([2]; concentration: 4mM) was 1.05 ± 0.071. The NP40-soluble protein abundance ([2]; concentration: 6mM) was 1.08 ± 0.029, the NP40-soluble protein abundance ([2]; concentration: 8mM) was 1.04 ± 0.029 and the NP40-soluble protein abundance ([2]; concentration: 10mM) was 1.12 ± 0.067. For the same compound, the NP40-soluble protein abundance ([3]; concentration: 1mM) was 0.983 ± 0.011, the NP40-soluble protein abundance ([3]; concentration: 2mM) was 0.981 ± 0.027 and the NP40-soluble protein abundance ([3]; concentration: 4mM) was 0.954 ± 0.017. It also gave an NP40-soluble protein abundance ([3]; concentration: 6mM) of 0.953 ± 0.015, an NP40-soluble protein abundance ([3]; concentration: 8mM) of 0.9284 ± 0.0016 and an NP40-soluble protein abundance ([3]; concentration: 10mM) of 0.929 ± 0.017.
